# From the supplement of paper PMC10338343
# ± gives the standard deviation. This is a selection; strong and weak results do not stand in their true shares. Many of these values have a large error.
# Tested on: EfPiwi piRISC loaded with piRNA #1 (26 nt)
# Assay: pre-steady-state target cleavage rate (min^-1); guide: piRNA #1 5'p-UGAGGUAGUAGGUUGUAUAGUAUCCA; MIWI and MILI are mouse PIWI proteins and EfPiwi is from a freshwater sponge; tags in brackets are library labels; higher = faster piRNA-guided slicing of the target
# Details: auxiliary factor: 500 nM Ephydatia muelleri Gtsf1
# Experimental: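 Cleave-'n-Seq: a library of target RNAs (target site in constant flanks) at […] was incubated with 1 nM active freshwater sponge Ephydatia fluviatilis Piwi piRISC (synthetic 5'-monophosphorylated piRNA guide) with or without 500 nM EmGtsf1 at 33 °C for 1 min to 16 h. Uncleaved targets were sequenced and the pooled three trials fitted to a burst-and-steady-state model to give the pre-steady-state cleavage rate (min^-1). Sequence is the target site only. Fits with R² ≤ 0 are excluded.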
row,Sequence,pre-steady-state target cleavage rate
1,GGAGACCUAUGAUAACAACCGUACUACCUCA,0.000798 ± 0.013
2,GGAGACCUAACUAUACAUCGUACUACCUCA,0.00261 ± 0.0048
3,GGAGACCUAUCUAUACAACCAUGAUGGAGA [g11:g20:cont:t1A],0.00169 ± 0.0052
4,GGAGACCAUACUAUACAAGGUACUACCUCA,0.00335 ± 0.0029
5,GGAGACCUUACUAUGACAACCUACUACCUCA,0.00456 ± 0.0042
6,GGAGACGAUACUAGACAACCUACUACCUCA,0.00452 ± 0.0029
7,GGAGACGAUACUAUACAACCUACUAGCACA,0.00326 ± 0.0016
8,GGAGACCUAUGAUUACAACCUACUAGGAGA [g6:g17:cont:t1A],0.000742 ± 0.0083
9,GGAGACCUAUGAUUACAACGUACUACGUCA,0.000592 ± 0.0045
10,GGAGACGAUACUAUACAACUCUACUACCUCA,0.00452 ± 0.0031
11,GGAGACCUAUGAUAUGUACGUACUACCUGA,0.000178 ± 0.013
12,GGAGACCUAUGAAUACAUGGUACUACCUCA,0.00141 ± 0.0075
13,GGAGACCUAUGAUAUGUAUCCUACUACCUCA,0.0011 ± 0.0056
14,GGAGACCAUACUAAACAACCUACUUCCUCA,0.00213 ± 0.0035
15,GGAGACCUAUCUAUACAACCUACUACCUUA,0.0739 ± 0.027
16,GGAGACCAUACUAUAGAACCUACUAGCUCA,0.00106 ± 0.0027
17,GGAGACCUAUGAUAACAUGCUACUACCUCA,0.00188 ± 0.0048
18,GGAGACCUAUGAAUACAACCUCCUACCUCA,0.00117 ± 0.0041
19,GGAGACCUAUCUAUAGAACCUAGUACCUCA,0.00025 ± 0.009
20,GGAGACCUUACUAUACAACGUAGUACCUCA,0.0032 ± 0.0044

row,Sequence,pre-steady-state target cleavage rate
1,GGAGACCUAUGAUUACAACCUAGAUCCUCA,0.000227 ± 0.0092
2,GGAGACCAUACUAUACAACCUACUCCCUCA,0.00669 ± 0.0039
3,GGAGACGAUACUAUACAACCUGCUACCUCA,0.128 ± 0.046
4,GGAGACCUUUCUAUACAACCUACAACCUCA,0.0025 ± 0.0028
5,GGAGACCUAUCUAUGACAACCUACUACCUCA,0.00594 ± 0.0037
6,GGAGACCUAUGAUUAGUUCCUACUACCUCA,0.000425 ± 0.0062
7,GGAGAGGAUACAAUACAACCUACUUCCUCA,0.00257 ± 0.002
8,GGAGAGGAUACAAUUCAACCUACUACCUCA,0.00331 ± 0.0043
9,GGAGACGAUACUAUACAACCUUCUACGUCA,0.00448 ± 0.0019
10,GGAGUGGAUACUAUUACAACCUACUACCUCA,0.131 ± 0.047
11,GGAGACCUAUGUUUACAUCCUACUACCUCA,0.00263 ± 0.0054
12,GGAGACCUAUGAUAUGUUCCUACUAGGUCA,0.000384 ± 0.013
13,GGAGACCUAUCUAUACAACCUACUUGGAGA [g7:g20:cont:t1A],0.00211 ± 0.005
14,GGAGACCAUUCUAUACAACCUACAACCUCA,0.00312 ± 0.0031
15,GGAGACCAUACUAUACAACCUACUCCUCA,0.0041 ± 0.0047
16,GGAGACCAUACUAAAGAACCUACUACCUCA,0.00225 ± 0.0046
17,GGAGACCAUACUAUCAACCUACUACCUCA,0.0101 ± 0.005
18,GGAGACCUAUGAUUACAACCAUGAUGGAGA [g11:g17:cont:t1A],0.000544 ± 0.011
19,GGAGACCUAUGAUAUGUACCUGACUACCUCA,0.000141 ± 0.022
20,GGAGAGGAUACUAUACAACCUUACUACCUCA,0.00845 ± 0.0045

# Some of the entries so far, as tab-separated lines:
row	Sequence	pre-steady-state target cleavage rate
7	GGAGAGGAUACAAUACAACCUACUUCCUCA	0.00257 ± 0.002
8	GGAGAGGAUACAAUUCAACCUACUACCUCA	0.00331 ± 0.0043
9	GGAGACGAUACUAUACAACCUUCUACGUCA	0.00448 ± 0.0019
10	GGAGUGGAUACUAUUACAACCUACUACCUCA	0.131 ± 0.047
11	GGAGACCUAUGUUUACAUCCUACUACCUCA	0.00263 ± 0.0054
12	GGAGACCUAUGAUAUGUUCCUACUAGGUCA	0.000384 ± 0.013
13	GGAGACCUAUCUAUACAACCUACUUGGAGA [g7:g20:cont:t1A]	0.00211 ± 0.005
